Source: PubChem BioAssay AID1159578 (Peter MacCallum Cancer Centre, 2015)

- Purpose: 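Genome-wide hunt for genes controlling movement of lymphatic endothelial cells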 (primary screen)
- Cells: human lymphatic endothelial cells
- Reagents: siRNA pool against human genes, 40 nM
- Time to read-out: 48 h after transfection
- Detection: 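Cells stained with dye and imaged after a scratch; covered wound area and nuclei counted, duplicates averaged, migration set against mock wells and turned into a robust z-score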
- Scale: migration robust z-score: higher = faster migration into the scratch; nuclei per well: higher = more cells in the well
- Active means: 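Pools averaging fewer than 3300 nuclei are never called; remaining pools count as changed when migration robust z lies outside -2 to 2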
- Meaning of the calls: active = migration changed; inactive = no migration change, or too few cells
Shown is an unselected part of about 18,000 reagents. Of all reagents, about 1,030 (5.7%) are marked active. 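Inactive calls also include pools with fewer than 3300 nuclei, whose migration was not assessed.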 The raw values are shown without normalisation. Entries without a mark were called inactive. Further read-outs or replicates are left out here.

The first 2 entries, to show the layout:
| gene | migration robust z-score | nuclei per well, duplicate mean |
| --- | --- | --- |
| CEP83 | -0.54 | 6377 |
| REEP2 | -0.92 | 5662 |

The listing, repeating the preview:
| gene | migration robust z-score | nuclei per well, duplicate mean |
| --- | --- | --- |
| CEP83 | -0.54 | 6377 |
| REEP2 | -0.92 | 5662 |
| REM2 | -0.87 | 3980 |
| PIK3IP1 | -1.6 | 4808 |
| ZNF276 | -1.87 | 6066 |
| ZNRF4 | 2.02 (active) | 6012 |
| PPFIA3 | -0.05 | 4532 |
| REG1A | -1.15 | 5038 |
| HOXA1 | 1.22 | 5087 |
| CDRT15P3 | -0.84 | 4516 |
| KRTAP1-3 | 0.16 | 5704 |
| NDUFA7 | -2.57 (active) | 5468 |
| ADAMTS13 | 0.13 | 5648 |
| RCHY1 | -0.05 | 5622 |
| WDR38 | 2.02 (active) | 6419 |
| ZNF24 | -1.87 | 4564 |
| STK38L | -0.46 | 3964 |
| ADAM33 | -1.69 | 5623 |
| XAF1 | 1.41 | 7362 |
| MACROD1 | -0.46 | 5386 |
| APH1B | -0.91 | 5670 |
| RLN2 | -0.49 | 4784 |
| LITAF | -0.32 | 7237 |
| KCTD21 | -1 | 5882 |
| SLC2A4 | 0.08 | 7431 |
| DHX57 | 0.66 | 4854 |
| DELE1 | -0.02 | 5573 |
| EPC2 | -1.07 | 5616 |
| IGF1R | -0.52 | 5214 |
| ACSM5 | -0.26 | 5388 |
| RTN4R | -0.88 | 4626 |
| TNFSF15 | 1.73 | 5302 |
| ZNF683 | -2.98 (active) | 5856 |
| GET1 | 0.67 | 5434 |
| PCBP3 | 1.74 | 5199 |
| ACKR5 | -0.65 | 5972 |
| IFIH1 | 0.05 | 4830 |
| ACAA2 | -1.5 | 6187 |
| SRR | -2.31 (active) | 5122 |
| HS3ST6 | -0.28 | 5734 |
| BPIFA3 | 0.75 | 6982 |
| ZNF223 | -2.34 (active) | 4508 |
| POTEE | -0.46 | 6559 |
| CHST13 | -0.13 | 5380 |
| GASK1B | 0.34 | 6381 |
| MYH7B | -0.61 | 4525 |
| ZNF214 | 0.28 | 7365 |
| MYNN | -0.68 | 6072 |
| WNT8A | -0.21 | 5432 |
| ANKRD33 | 0.2 | 6162 |
| LTB4R2 | -0.18 | 6072 |
| KCNMA1 | 0.28 | 4922 |
| GALNT4 | 1.02 | 5124 |
| ATP2A2 | 0.05 | 5553 |
| CYP27B1 | 0.08 | 5764 |
| ZBTB7C | -0.82 | 5408 |
| TRPM3 | -3.45 | 3046 |
